This is one part of the list.

What all share (assay): protein microarray (ProtoArray v5.0), streptavidin-Alexa Fluor 647
What all share (conditions): 3'-biotin; 20 mM Tris (pH 7.5), 5 mM MgCl2, 100 mM KCl, 0.1% Tween-20, A/T-rich and random oligonucleotide blockers; temperature not stated; high values mean tight binding

The subject of assay [1] is Baculoviral IAP repeat-containing protein 7 (human).
Assay [2] deals with Band 4.1-like protein 4A (human).
Assay [3] has as its system Bardet-Biedl syndrome 10 protein (human).
Assay [4] concerns Bcl-2-related proline-rich protein (human).
In assay [5] the test system is Beta-2-microglobulin (human).
For assay [6], the system named is Beta-Ala-His dipeptidase (human).
Assay [7] concerns Beta-crystallin B3 (human).
Assay [8] relates to Bifunctional heparan sulfate N-deacetylase/N-sulfotransferase 1 (human).
For assay [9], the system named is Bifunctional protein NCOAT (human).
Assay [10] relates to Biogenesis of lysosome-related organelles complex 1 subunit 1 (human).
Assay [11] relates to Brain and acute leukemia cytoplasmic protein (human).
Assay [12] concerns Branched-chain-amino-acid aminotransferase, mitochondrial (human).
For assay [13], the system named is Breast carcinoma-amplified sequence 4 (human).
Assay [14] relates to Butyrophilin subfamily 1 member A1 (human).
Assay [15] deals with Butyrophilin subfamily 2 member A2 (human).
Assay [16] has as its system Bystin (human).
The test system of assay [17] is C-C motif chemokine 20 (human).
Assay [18] concerns C-C motif chemokine 22 (human).
Assay [19] relates to C-C motif chemokine 4 (human).
Assay [20] has as its system C-Maf-inducing protein (human).

For the sequence “GGGAGGCTGAGGCAGG [G4-1 biotinylated (PQS2)]”, the binding signal in assay [1] is -0.355 z-score; in assay [2], 3.59 z-score; in assay [3] it was -0.327 z-score; in [4], -0.355 z-score; in assay [5], -0.342 z-score; in [6], -0.332 z-score. The binding signal in assay [7] was -0.333 z-score; in assay [8], -0.331 z-score; in [9], -0.357 z-score; in assay [10], -0.348 z-score; in assay [11], -0.298 z-score; in [12], -0.364 z-score. Besides, the binding signal is -0.353 z-score in [13]; -0.315 z-score in [14]; -0.333 z-score in assay [15]; -0.306 z-score in [16]; -0.35 z-score in assay [17]; -0.337 z-score in [18]. The figures for the binding signal in assay [19] and in assay [20] were -0.341 z-score and -0.351 z-score, respectively.

Values taken from paper PMC5996148.
